Measured values taken from article PMC6872537.
These are yes or no findings as the source states them, for the method shown. In cells and extracts the contact can be indirect. Here binding means that the protein was enriched with, or labelled near, the bait; the list need not be complete.

Sequences of proteins named here, by UniProt entry; tags and fusion partners are left off.
UniProt O95251: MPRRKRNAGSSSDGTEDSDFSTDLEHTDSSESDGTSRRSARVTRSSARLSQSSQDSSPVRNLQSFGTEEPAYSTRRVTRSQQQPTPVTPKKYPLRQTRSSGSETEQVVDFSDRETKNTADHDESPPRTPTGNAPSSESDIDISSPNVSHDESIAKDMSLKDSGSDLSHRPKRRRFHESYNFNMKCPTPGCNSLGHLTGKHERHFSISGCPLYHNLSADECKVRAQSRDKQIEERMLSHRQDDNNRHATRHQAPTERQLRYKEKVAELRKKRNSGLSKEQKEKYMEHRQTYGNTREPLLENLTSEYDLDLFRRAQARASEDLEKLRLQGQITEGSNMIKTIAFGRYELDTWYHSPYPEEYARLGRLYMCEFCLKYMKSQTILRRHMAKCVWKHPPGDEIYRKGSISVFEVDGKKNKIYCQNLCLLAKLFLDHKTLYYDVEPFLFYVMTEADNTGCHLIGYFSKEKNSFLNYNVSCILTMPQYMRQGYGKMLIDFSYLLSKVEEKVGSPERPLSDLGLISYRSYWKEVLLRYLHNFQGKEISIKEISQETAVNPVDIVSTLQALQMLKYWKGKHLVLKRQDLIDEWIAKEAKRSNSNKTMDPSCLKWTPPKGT
UniProt Q04206: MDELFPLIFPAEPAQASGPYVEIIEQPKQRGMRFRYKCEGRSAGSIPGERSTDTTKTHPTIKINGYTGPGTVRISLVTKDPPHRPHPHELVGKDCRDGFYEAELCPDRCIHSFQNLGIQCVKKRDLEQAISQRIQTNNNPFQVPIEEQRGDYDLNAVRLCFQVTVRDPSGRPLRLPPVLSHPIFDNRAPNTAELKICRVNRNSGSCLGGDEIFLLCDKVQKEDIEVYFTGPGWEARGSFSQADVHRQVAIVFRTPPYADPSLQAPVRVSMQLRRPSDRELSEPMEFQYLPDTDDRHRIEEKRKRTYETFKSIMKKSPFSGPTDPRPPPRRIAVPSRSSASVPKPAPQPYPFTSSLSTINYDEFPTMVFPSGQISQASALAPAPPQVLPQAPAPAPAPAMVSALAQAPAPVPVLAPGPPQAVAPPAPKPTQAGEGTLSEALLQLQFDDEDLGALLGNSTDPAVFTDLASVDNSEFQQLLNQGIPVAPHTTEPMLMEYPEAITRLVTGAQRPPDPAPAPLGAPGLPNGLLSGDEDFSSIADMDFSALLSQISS
UniProt Q14978: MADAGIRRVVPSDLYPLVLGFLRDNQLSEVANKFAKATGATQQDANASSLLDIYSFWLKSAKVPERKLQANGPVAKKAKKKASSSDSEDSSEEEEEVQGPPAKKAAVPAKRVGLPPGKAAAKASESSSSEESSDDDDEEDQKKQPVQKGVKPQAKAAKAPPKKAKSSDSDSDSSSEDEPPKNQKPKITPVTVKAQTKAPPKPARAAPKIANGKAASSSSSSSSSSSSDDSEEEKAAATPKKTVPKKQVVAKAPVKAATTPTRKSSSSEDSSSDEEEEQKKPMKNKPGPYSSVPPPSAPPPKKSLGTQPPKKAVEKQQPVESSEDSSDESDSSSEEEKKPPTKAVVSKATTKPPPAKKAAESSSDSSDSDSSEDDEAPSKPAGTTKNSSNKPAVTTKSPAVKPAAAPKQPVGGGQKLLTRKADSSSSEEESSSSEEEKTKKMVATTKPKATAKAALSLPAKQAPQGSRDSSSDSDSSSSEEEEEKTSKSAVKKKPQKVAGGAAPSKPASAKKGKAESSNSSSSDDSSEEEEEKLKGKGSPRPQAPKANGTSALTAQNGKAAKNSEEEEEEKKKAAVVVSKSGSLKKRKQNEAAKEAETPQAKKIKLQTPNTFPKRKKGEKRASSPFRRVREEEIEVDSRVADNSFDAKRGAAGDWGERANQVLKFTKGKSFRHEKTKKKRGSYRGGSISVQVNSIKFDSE

B1: G Protein nucleolar 3 (GNL3), endogenous in HeLa S3 (protein, UniProt Q9BVP2 1-549)
chain: MKRPKLKKASKRMTCHKRYKIQKKVREHHRKLRKEAKKRGHKKPRKDPGVPNSAPFKEALLREAELRKQRLEELKQQQKLDRQKELEKKRKLETNPDIKPSNVEPMEKEFGLCKTENKAKSGKQNSKKLYCQELKKVIEASDVVLEVLDARDPLGCRCPQVEEAIVQSGQKKLVLILNKSDLVPKENLESWLNYLKKELPTVVFRASTKPKDKGKITKRVKAKKNAAPFRSEVCFGKEGLWKLLGGFQETCSKAIRVGVIGFPNVGKSSIINSLKQEQMCNVGVSMGLTRSMQVVPLDKQITIIDSPSFIVSPLNSSSALALRSPASIEVVKPMEAASAILSQADARQVVLKYTVPGYRNSLEFFTVLAQRRGMHQKGGIPNVEGAAKLLWSEWTGASLAYYCHPPTSWTPPPYFNESIVVDMKSGFNLEELEKNNAQSIRAIKGPHLANSILFQSSGLTNGIIEEKDIHEELPKRKERKQEEREDDKDSDQETVDEEVDENSSGMFAAEETGEALSEETTAGEQSTRSFILDKIIEEDDAYDFSTDYV

target: GST-ING4 (glutathione S-transferase-fused Inhibitor of growth 4) (human) (UniProt Q9UNL4); test: affinity purification with mass spectrometry; GST-ING4 (5 ug) mixed with 3 ml HeLa S3 lysate (4 mg/ml; Lysis Buffer A: 20 mM Hepes-KOH pH 7.4, 100 mM KCl, 20 mM NaCl, 1% NP-40, 1 mM DTT) overnight at 4 C, captured on Glutathione Sepharose 4B, washed three times, eluted with SDS sample buffer; silver-stained SDS-PAGE, nanoLC/MS/MS; only the target purified

binding, binds:
histone acetyltrasferase HBO1, endogenous in HeLa S3 (from UniProt O95251 1-611)
nuclear factor NF-kappa-B p65 subunit, endogenous in HeLa S3 (from UniProt Q04206 1-551)
nucleolar GTP-binding protein 2 (GNL2), endogenous in HeLa S3 (from UniProt Q13823 1-731)
nucleolar and coiled-body phosphoprotein 1 (NOLC1), endogenous in HeLa S3 (from UniProt Q14978 1-699)
p53, endogenous in HeLa S3 (from UniProt P04637 1-393)
B1
